Results on one molecule are retold here after article PMC9772183.

This experiment addresses Ash-GABARAP, O95166. Nature of the experiment: Fluoppi; Ash-tagged LC3 or GABARAP co-expressed with hAG-tagged CDK5RAP3 in HEK293T; fluorescent foci in living cells. As to conditions: remark: other sources report otherwise.

No constants are given. Whether binding was seen depends on the method and setting. Where a sequence is shown, tags or fusion partners need not be part of it.

B1: hAG-tagged CDK5RAP3 LC3-interacting region-mutant (CDK5RAP3^3WA), Q96JB5 1-506 (protein)
chain: MEDHQHVPIDIQTSKLLDWLVDRRHCSLKWQSLVLTIREKINAAIQDMPESEEIAQLLSGSYIHYFHCLRILDLLKGTEASTKNIFGRYSSQRMKDWQEIIALYEKDNTYLVELSSLLVRNVNYEIPSLKKQIAKCQQLQQEYSRKEEECQAGAAEMREQFYHSCKQYGITGENVRGELLALVKDLPSQLAEIGAAAQQSLGEAIDVYQASVGFVCESPTEQVLPMLRFVQKRGNSTVYEWRTGTEPSVVERPHLEELPEQVAEDAIDAGDFGVEAVSEGTDSGISAEAAGIDAGIFPESDSKDPGGDGIDAGDDAVALQITVLEAGTQAPEGVARGPDALTLLEYTETRNQFLDELMELEIFLAQRAVELSEEADVLSVSQFQLAPAILQGQTKEKMVTMVSVLEDLIGKLTSLQLQHLFMILASPRYVDRVTEFLQQKLKQSQLLALKKELMVQKQQEALEEQAALEPKLDLLLEKTKELQKLIEADISKRYSGRPVNLMGTSL
With B1, the binding entry was “no binding”.
